Results on two substances are retold here after patent US6472141B2, “Kinase assays using polycations” (Caliper Technologies Corp., priority 1999, dated 2002).

The series concerns poly-D-Lysine. Kind of series: Fluorescence polarization of CDK2 substrate and phosphorylated product on addition of poly-D-lysine. Format: binding.
Where [1] appears, read: in the absence of polylysine, 50 mM TAPS pH 9.0.
The mark [2] stands for this setting: upon addition of polylysine, 50 mM TAPS pH 9.0.

As for “product: phosphorylated product of Flourescein-QSPKKG-CONH2 after incubation with ATP and CDK2”, the fluorescence polarization entry reads like this: under setting [1], “about 38 mP”; (upon addition of a large excess of polylysine) about 100 mP; under setting [2], 72 mP.

For the substance “Flourescein-QSPKKG-CONH2 [substrate, ID NO; 12]”, the fluorescence polarization entry is reported as “about 38 mP” under setting [1] and “about 42 mP” under setting [2].
